Measurements published in article PMC12581312, “Lung endothelial PEAR1 induces tumor cell dormancy” (Molecular Cancer, 2025).
Results are given in words; binding and its absence hold for the method and conditions named. A result given as binding can be weak or reduced; the word gives no strength. Tags and fused reporters may be left off the sequences shown.

Chains of the proteins cited; added tags and fusions are not shown. Lines headed by an entry give the natural chain unless they say otherwise; changes in a name come on top.
UniProt P07339: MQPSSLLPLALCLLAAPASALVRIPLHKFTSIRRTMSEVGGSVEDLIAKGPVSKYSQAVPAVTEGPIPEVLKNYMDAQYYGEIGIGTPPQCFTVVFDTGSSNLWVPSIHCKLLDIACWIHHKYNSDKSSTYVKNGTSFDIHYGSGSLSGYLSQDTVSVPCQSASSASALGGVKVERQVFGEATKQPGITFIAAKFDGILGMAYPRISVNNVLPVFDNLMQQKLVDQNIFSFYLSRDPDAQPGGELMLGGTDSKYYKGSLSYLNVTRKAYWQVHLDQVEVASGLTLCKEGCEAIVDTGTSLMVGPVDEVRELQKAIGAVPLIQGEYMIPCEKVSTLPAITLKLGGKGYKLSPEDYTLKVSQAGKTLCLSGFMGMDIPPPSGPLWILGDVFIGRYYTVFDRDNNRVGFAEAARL

Biological target: T1, Human recombinant PEAR1 extracellular part (platelet and endothelial aggregation receptor 1), His-tagged (human) (UniProt Q5VY43)
T1 sequence: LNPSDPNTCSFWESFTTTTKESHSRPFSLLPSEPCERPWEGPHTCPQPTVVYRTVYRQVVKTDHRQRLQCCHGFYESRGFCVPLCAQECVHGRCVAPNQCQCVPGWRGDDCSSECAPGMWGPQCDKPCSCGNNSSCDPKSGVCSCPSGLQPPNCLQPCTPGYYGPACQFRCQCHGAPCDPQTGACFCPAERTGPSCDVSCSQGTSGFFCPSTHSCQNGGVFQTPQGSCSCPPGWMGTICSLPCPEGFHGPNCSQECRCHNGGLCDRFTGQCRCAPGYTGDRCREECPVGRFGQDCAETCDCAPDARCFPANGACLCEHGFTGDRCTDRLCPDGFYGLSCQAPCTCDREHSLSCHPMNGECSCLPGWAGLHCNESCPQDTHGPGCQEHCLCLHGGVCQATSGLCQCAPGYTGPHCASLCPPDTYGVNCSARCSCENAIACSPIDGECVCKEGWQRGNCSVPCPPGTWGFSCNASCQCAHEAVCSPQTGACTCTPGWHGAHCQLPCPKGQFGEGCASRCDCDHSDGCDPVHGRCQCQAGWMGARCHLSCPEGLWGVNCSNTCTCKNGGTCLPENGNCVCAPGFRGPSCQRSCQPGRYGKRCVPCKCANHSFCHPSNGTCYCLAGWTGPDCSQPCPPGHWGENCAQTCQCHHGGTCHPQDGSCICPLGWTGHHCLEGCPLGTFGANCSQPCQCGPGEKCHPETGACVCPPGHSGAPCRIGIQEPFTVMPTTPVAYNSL
Experiment: pull-down; recombinant human PEAR1 (100 nM) immobilised on Ni-NTA magnetic beads, incubated with 100 nM recombinant human CTSD, SEMA6D or LOXL2 in 50 mM NaH2PO4, 300 mM NaCl, 20 mM imidazole, pH 8.0, 1 h at room temperature; control Ni-NTA beads; immunoblotting; both purified

binding: binds
Substance: Recombinant human cathepsin D (CTSD) (from UniProt P07339) (enzyme)
